Results from PubChem BioAssay AID720591 (Broad Institute, 2013).
Among all 1,200 compounds or so, about 60 (5%) were called active. Roughly 1% stayed inconclusive and do not appear here.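 Rule for the calls: active = Decreasing signal and fitted IC50 at most twice the top valid tested dose; inconclusive = Bad fit or a level curve showing 30 to 70% inhibition; inactive = the rest.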 Some of the results follow. Measured potencies and affinities stand elsewhere.

By UniProt entry, the sequences of proteins in these tests, tags left out. Where a name states a change or a piece, a line headed by the entry shows the natural chain unless it says otherwise.
UniProt Q9NXA8: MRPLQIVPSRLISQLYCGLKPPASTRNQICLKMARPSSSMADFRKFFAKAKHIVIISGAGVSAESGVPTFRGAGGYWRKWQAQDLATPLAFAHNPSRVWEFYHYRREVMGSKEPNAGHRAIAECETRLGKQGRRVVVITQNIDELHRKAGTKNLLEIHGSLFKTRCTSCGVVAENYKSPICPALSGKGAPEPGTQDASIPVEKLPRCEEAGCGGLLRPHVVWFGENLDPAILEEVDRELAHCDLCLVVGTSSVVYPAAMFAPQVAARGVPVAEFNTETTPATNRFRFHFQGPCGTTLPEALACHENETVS

What follows are compounds tested against NAD-dependent protein deacylase sirtuin-5, mitochondrial (Homo sapiens) (UniProt Q9NXA8) (assay: sirtuin-5 deacylation blockers, concentration series – biochemical, fluorescence imaging, cherry-pick, set 5, dose response (AID 720591;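 note: 0% = median of neutral control wells and -100% = median of positive control wells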)). Details: Purified SirT5, succinyl-peptide AMC, trypsin-coupled fluorescence; at 15 µM (top of the series) unless noted.

Activity change, negative = inhibition, inactive:
CCN(c1ccccc1)S(=O)(=O)c1nnc(NC(=O)C(C)(C)C)s1 -1.58%
COc1ccc(C(CNC(=O)c2cccc(S(=O)(=O)N3CCCCC3)c2)N2CCCC2)cc1 (centres undefined) -22.6%
COc1ccc(/C=C/c2nc3ccccc3c(=O)n2-c2cccc(C(=O)O)c2)cc1 9.63%
C=CC(=O)N(CCC)C(c1ccccc1)c1ccccc1OC (centres undefined) -4.06%
CCOC(=O)CCCCCC(=O)Nc1ccc2c(c1)C(=O)N([C@H](C)CO)C[C@@H](C)[C@@H](CN(C)S(=O)(=O)c1ccc(C)cc1)OCCCC[C@H](C)O2 3.87%
Cn1cnc(CCNC(=O)C[C@H]2CC[C@@H]3[C@H](COC[C@H](O)CN3C(=O)C3CCCC3)O2)c1 -26.2%
COc1ccc(-c2[nH]ncc2CN(CCO)CC23CC4CC(CC(C4)C2)C3)c(OC)c1 -9.43%
COC(=O)c1ccc(C)c(NC(=O)CSc2sc3c(O)cc(=O)[nH]c3c2C#N)c1 -17%
COc1cccc(NC(=O)c2ccccc2)c1 -3.36%
Cc1cccc(N2CCN(C(=O)c3ccc4nc[nH]c4c3)CC2)c1C -1.76%
CC(=O)C[C@@H](O)CC(=O)[C@@H]1OC(=O)CCCCC/C=C/Cc2ccccc21 17.8%
CC1CCN(C(=O)CN(c2cccc(F)c2)S(C)(=O)=O)CC1 14.6%
CCC(C)C(CO)NCCCn1cnc2c(SC)ncnc21 (centres undefined) 4.95%
CC(c1ccccc1)n1cnc2ccccc2c1=O (centres undefined) -16.7%
CC(C)c1ccc2[nH]c3c(c2c1)[C@@H]1CCN2C(=O)CCC[C@H](C3)[C@H]12 -8.44%
COc1cccc(CN(CCC(C)C)S(=O)(=O)c2cc(Br)ccc2Br)c1 -21.5%
COCCNCC(=O)C12CC3CC(CC(C3)C1)C2 -30.6%
CCOC(=O)N1CCN(C(=O)C2CCC(=O)N(Cc3cccc(C(F)(F)F)c3)C2)CC1 (centres undefined) 25.2%
CCOCCCNC(=O)C(c1ccc(Cl)cc1)N(Cc1cccs1)C(=O)c1ccccn1 (centres undefined) 30.2%
O=C(Cc1ccc(Cl)cc1Cl)Nc1cccc(S(=O)(=O)Nc2ccccc2F)c1 -5.24%
CCn1c(=O)c(C(=O)CN2CCN(S(=O)(=O)c3ccc(C)cc3C)CC2)c(N)n(Cc2ccccc2)c1=O -34.5%
COc1ccc(NC(=O)CN2CCN(C(=O)C3CCCO3)CC2)c(OC)c1 (centres undefined) 12.7%
O=C(COC(=O)c1ccc(O)cc1O)c1ccc2c(c1)OCCO2 -0.843%
Cc1ccc(-n2cc(CN3CCN(Cc4nccn4C)CC3)c(-c3cccc(C)c3)n2)cc1 9.65%
CN(C)CCN1CCN(C2CN(Cc3cn(Cc4ccccc4C(F)(F)F)nn3)S(=O)(=O)C2)CC1 (centres undefined) -25.3%
COc1cc(Cl)c(CN2CCCC(CO)(Cc3ccccc3)C2)cc1OC (centres undefined) -30.4%
COC(=O)CC1=C(C)C(=O)CC2C(C)(C)CCCC12C (centres undefined) 8.94%
Cc1cccc(OC(=O)Nc2ccc(C(=O)O)c(O)c2)c1 -32.6%
CCC(C)(C)NC(=O)C(c1ccc(OC)cc1)N(Cc1ccco1)C(=O)CCC(=O)Nc1cc(C)on1 (centres undefined) -28.7%
Cc1ccc(F)cc1NC(=O)CCC(=O)c1cccs1 2.04%
O=C(CCNS(=O)(=O)c1ccc(Br)s1)NC1CCCC1 10.6%
Cc1cc(Br)ccc1SCC(=O)OC/C(O)=C(\C#N)c1nc2ccccc2[nH]1 -24.9%
Cc1csc(NC(=O)c2ccc(S(C)(=O)=O)cc2)n1 10.2%
C[C@H](CO)N1C[C@H](C)[C@@H](CN(C)S(C)(=O)=O)Oc2ccc(NC(=O)CCN3CCOCC3)cc2C1=O -34%
CCOC(=O)C(Cc1ccc(NC(C)=O)cc1)N1C(=O)c2ccccc2C1=O (centres undefined) -8.71%
CC(Oc1ccccc1)C(=O)Nc1nnc(C2CCCCC2)s1 (centres undefined) -30%
COc1ccc(-n2c(SCC(N)=O)nnc2-c2ccco2)cc1 -23.9%
Cc1ccc2nc(-c3ccccc3)c(Cc3cccc(Cl)c3)n2c1 -3.52%
Fc1cccc(F)c1-c1nc(-c2ccncc2)no1 11.2%
C/C=C/c1cccc(-c2nc(C(=O)NC3CCC3)cc3c2[C@@H](CCO)N(S(=O)C(C)(C)C)C3)c1 (some centres undefined) 9.99%
CCOC(=O)C1(C)CCN1C(=O)c1cccc(Cl)c1 (centres undefined) -3.12%
Cc1ccc(-n2cc(CN(C)Cc3nccn3C)c(-c3ccc(F)cc3)n2)cc1 -17.1%
COc1cc(C)c(CN2CCN(CC(=O)Nc3ccccc3C(=O)NC3CC3)CC2)cc1OC -25.6%
COc1ccc(CNC(=O)CN2C(=O)C3C4C=CC(C4)C3C2=O)cc1 (centres undefined) -8.78%
COc1ccc(N2CCN(C(=O)CN(C)S(=O)(=O)c3cc(C)ccc3OC)CC2)cc1 -6.06%
COc1ccc(C(=O)Nc2cccc3cccnc23)cc1OC -26.1%
CCOc1ccccc1NC(=O)CN1CCN(C(=O)C2CCCO2)CC1 (centres undefined) 4.02%
NC(=O)Cn1c(=O)oc2ccccc21 -24%
CC1CCCN(S(=O)(=O)c2cc3c4c(c2)C(C)C(=O)N4CCC3)C1 (centres undefined) 23.1%
COc1ccc(CN(C(=O)c2ccco2)c2ccc(C)cc2)cc1OC -33.2%
CC1(C)CN(c2ccccc2)N(C(=O)c2ccc(F)cc2)C1=O -31.2%
COc1ccc(Nc2c(-c3ccc(C)cc3)nc3cnccn23)cc1 -5.55%
CNCc1cc(Br)c(OCC(=O)Nc2ccccc2OC)c(OC)c1 12.6%
Cc1cccc(-n2cc(CN3CCN(Cc4nccn4C)CC3)c(-c3cccc(F)c3)n2)c1 -20.1%
Cc1ccc(NC(=O)c2ccc3c(c2)CCN3S(C)(=O)=O)cc1 11.9%
O=S(=O)(CCc1ccncc1)c1ccc(Cl)cc1 7.83%
COc1ccccc1C1CC(=O)Oc2cc(C)c(Br)c(C)c21 (centres undefined) -16.1%
CC1CN(S(=O)(=O)c2ccc(CN3C(=O)c4cccnc4C3=O)s2)c2ccccc2O1 (centres undefined) 16.4%
O=C(c1cc2nc(-c3ccccc3)cc(C(F)(F)F)n2n1)N1CCCC1 -23.5%
Cc1noc(C)c1NC(=O)N(C)C[C@@H]1Oc2ncc(Br)cc2C(=O)N([C@@H](C)CO)C[C@H]1C 34.1%
Cc1ccc(-c2nc3c(Cl)cc(C(F)(F)F)cn3c2Cc2cccc(F)c2)cc1 6.86%
O=C(NCc1csc(-c2cccs2)n1)Nc1ccc(C(F)(F)F)cc1 -5.41%
COc1ccccc1NC(=O)CNc1ccc(F)c(Cl)c1 0.52%
O=S1c2ccccc2Nc2ccccc21 8.8%
Cc1ccc(C(C(=O)NC(C)(C)C)N(C(=O)CCC(=O)Nc2ccccn2)c2ccccc2F)cc1 (centres undefined) -3.12%
CSc1ccccc1OCc1cc(C(=O)N(C)C2CCCc3ccccc32)no1 (centres undefined) -23.7%
Cc1cccc(Nc2ccncc2S(N)(=O)=O)c1 15.9%
COC(=O)[C@@]1(Cc2ccc(F)cc2)[C@H]2c3cc(C(=O)N4CCCC4)n(Cc4cc(F)cc5c4OCOC5)c3C[C@H]2CN1C(=O)c1ccccc1 5.04%
CCc1cc(CNC(=O)CCc2nnc(CCCc3ccccc3)o2)on1 15.5%
Cc1cc(C(=O)OCC(=O)N(C)c2ccccc2)c2ccccc2n1 8.2%
NNC(=O)Nc1cccc(C(F)(F)F)c1 -19.8%
Cc1ccc(Cn2c(N3CCN(C)CC3)nc3c2c(=O)[nH]c(=O)n3C)cc1 -22.3%
CC(C)CCNC(=O)CC1C(=O)N(Cc2ccccc2)C(C)c2nc3ccccc3n21 (centres undefined) -12.5%
CCOC(=O)c1c(-c2ccccc2)oc2ccc(OCC(N)=O)cc12 -16.4%
Cn1c(SCC(=O)NCC2CCCO2)nnc1-c1ccc(Cl)cc1 (centres undefined) -5.46%
Cc1ccc(N(C(=O)c2csnn2)C(C(=O)NC2CCCCC2)c2ccco2)cc1 (centres undefined) 30.9%
Cc1cccc(NC(=O)C2CC(=O)n3ncnc3N2)c1 (centres undefined) -12.1%
COc1cccc(CC(=O)Nc2nc(-c3ccc(F)c(F)c3)cs2)c1 -16.6%
COc1ccc(Cl)cc1NC(=O)COC(=O)c1ccc(Br)o1 -27.1%
COc1ccc(-c2[nH]ncc2CN2CCCC(C(=O)c3cccc(OC)c3)C2)cc1 (centres undefined) 6.7%
Cc1c(C)c2c(C)nn(-c3ccccc3)c2[nH]c1=O -25.9%
CC(C)(C)C(=O)c1c(N)[nH]c(C(=O)c2ccccc2)c1-c1ccc(Br)cc1 15.2%
CCN(CC(=O)NC1CCS(=O)(=O)C1)S(=O)(=O)c1ccccc1 (centres undefined) 19.5%
CSc1ccccc1C(=O)Nc1ccc2c(c1)CCC2 8.23%
CCOC(=O)c1cnc2ncnn2c1N -12.4%
Cc1cc(C(=O)COc2ccc(C#N)cc2)c(C)n1-c1ccc2c(c1)OCO2 9.98% [at 7.5 µM]
COc1ccc2c(c1)C(=O)O[C@@H](c1ccccc1)C[C@@H](O)C(=O)CC2 5.6%
O=C(Nc1ccc(S(=O)(=O)Nc2nccs2)cc1)c1cccc(F)c1 11.9%
C=CCNC(=O)CC1C(=O)NCCN1Cc1c(F)cccc1Cl (centres undefined) 14.4%

Structures shown so far with a cyano group, in the order listed:
Activity change, negative = inhibition, inactive:
COC(=O)c1ccc(C)c(NC(=O)CSc2sc3c(O)cc(=O)[nH]c3c2C#N)c1 -17%
Cc1cc(Br)ccc1SCC(=O)OC/C(O)=C(\C#N)c1nc2ccccc2[nH]1 -24.9%
Cc1cc(C(=O)COc2ccc(C#N)cc2)c(C)n1-c1ccc2c(c1)OCO2 9.98% [at 7.5 µM]
